For one molecule, binding results are on record in patent publication EP2072528A1.

Chains of the proteins cited; added tags and fusions are not shown.
UniProt P26641: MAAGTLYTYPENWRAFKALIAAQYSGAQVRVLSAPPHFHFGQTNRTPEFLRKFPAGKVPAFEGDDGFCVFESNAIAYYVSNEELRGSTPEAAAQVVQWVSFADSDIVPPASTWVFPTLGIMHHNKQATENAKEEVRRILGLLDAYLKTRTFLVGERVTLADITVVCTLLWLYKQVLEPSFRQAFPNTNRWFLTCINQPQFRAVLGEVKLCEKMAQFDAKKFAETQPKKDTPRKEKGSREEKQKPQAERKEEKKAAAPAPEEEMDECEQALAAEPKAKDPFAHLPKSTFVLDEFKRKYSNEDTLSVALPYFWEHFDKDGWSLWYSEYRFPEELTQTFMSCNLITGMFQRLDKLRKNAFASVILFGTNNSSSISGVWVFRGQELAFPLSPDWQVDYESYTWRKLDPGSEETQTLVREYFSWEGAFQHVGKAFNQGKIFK
UniProt Q96RP9: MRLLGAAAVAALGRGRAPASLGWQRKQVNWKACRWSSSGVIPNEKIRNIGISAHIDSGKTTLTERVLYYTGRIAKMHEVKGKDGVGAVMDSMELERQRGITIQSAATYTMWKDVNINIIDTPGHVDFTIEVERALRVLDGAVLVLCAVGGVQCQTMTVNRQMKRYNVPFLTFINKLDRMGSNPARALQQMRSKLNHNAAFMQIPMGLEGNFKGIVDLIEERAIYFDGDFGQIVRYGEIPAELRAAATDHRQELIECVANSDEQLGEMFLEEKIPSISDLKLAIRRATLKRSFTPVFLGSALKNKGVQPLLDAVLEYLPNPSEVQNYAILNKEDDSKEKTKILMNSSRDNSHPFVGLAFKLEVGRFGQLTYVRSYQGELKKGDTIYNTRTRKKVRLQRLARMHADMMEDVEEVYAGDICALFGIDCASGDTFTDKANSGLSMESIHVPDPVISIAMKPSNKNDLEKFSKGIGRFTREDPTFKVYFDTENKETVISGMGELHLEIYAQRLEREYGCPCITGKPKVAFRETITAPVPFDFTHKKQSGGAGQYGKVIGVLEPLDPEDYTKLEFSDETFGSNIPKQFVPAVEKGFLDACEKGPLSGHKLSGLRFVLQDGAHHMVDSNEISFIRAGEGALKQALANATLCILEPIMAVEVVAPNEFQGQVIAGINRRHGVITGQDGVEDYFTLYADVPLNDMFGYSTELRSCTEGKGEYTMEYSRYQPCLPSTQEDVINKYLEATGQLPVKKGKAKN

For assay [1], the target named is EEF1G Maltose Binding Protein (MBP)-fusion protein (human) (UniProt P26641). In words: in vitro pulldown with MBP-fusion protein.
The target of assay [2] is GFM1 Maltose Binding Protein (MBP)-fusion protein (human) (UniProt Q96RP9). Description: in vitro pulldown with MBP-fusion protein.

Results are given in words; binding and its absence hold for the method and conditions named. Binding seen in cells or lysates may run through a third protein. Some results given as binding are weak or reduced against the parent protein; the word gives no strength.

B1: 212 amino acid residue central fragment of human MuRF2 (MuRF2 Bcc, B-Box + coiled-coil domain) (protein)
chain: KSDQPMCEEHEEERINIYCLNCEVPTCSLCKVFGAHKDCQVAPLTHVFQRQKCELSDGIAILVGSNDRVQGVISQLEDTCKTIEECCRKQKQELCEKFDYLYGILEEKRNEMTQVITRTQEEKLEHVRALIKKYSDHLENVSKLVESGIQFMDEPEMAVFLQNAKTLLKKISEASKAFQMEKIEHGYENMNHFTVNLNREEKIIREIDFYRE
For B1, the binding entry in assay [1] and in assay [2] was “binds” throughout.
